# Hit rate of the full screen: of about 1,600 compounds, about 20 (1%) were called active.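 Rule for the calls: active = ratio of uncleaved NAD to its breakdown product ADP-ribose above 4, meaning the enzyme was inhibited; inactive = the rest.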 The list shows a part of the results.
# Amino acid sequences for entries named in this document (tags omitted). A change or cut given only in a name is not applied to a line headed by its entry.
# UniProt Q6SZW1: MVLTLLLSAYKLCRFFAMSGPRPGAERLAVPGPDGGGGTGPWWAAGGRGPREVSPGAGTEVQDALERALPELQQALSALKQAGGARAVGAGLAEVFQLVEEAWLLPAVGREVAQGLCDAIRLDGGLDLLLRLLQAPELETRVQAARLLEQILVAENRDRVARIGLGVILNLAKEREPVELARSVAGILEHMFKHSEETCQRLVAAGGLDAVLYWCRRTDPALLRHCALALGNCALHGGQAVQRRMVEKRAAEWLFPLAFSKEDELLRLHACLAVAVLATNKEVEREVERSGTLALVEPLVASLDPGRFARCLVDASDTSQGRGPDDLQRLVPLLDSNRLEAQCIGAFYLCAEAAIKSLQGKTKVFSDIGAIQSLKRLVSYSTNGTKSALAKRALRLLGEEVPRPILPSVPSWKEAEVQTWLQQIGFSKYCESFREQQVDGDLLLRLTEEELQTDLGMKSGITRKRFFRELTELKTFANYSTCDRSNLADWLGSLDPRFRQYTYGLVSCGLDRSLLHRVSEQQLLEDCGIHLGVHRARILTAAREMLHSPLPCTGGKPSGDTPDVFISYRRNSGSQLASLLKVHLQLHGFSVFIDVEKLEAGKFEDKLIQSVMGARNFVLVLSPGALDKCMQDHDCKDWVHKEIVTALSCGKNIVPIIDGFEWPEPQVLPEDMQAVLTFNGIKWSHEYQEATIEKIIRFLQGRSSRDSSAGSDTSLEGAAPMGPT
# Molecular target: NAD(+) hydrolase SARM1 (Homo sapiens) (UniProt Q6SZW1)
# Test: SARM1 TIR NADase inhibitors by HPLC, primary screen, cell lysate, HPLC readout (AID 1508615);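 note: substrate NAD at 5 µM with 60 min at 37 °C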
# Conditions: HEK293T SAM-TIR lysate, at 5 µM, active compounds read high
row,Compound,NAD/ADPR ratio
1,Cc1ccc(/C=C2\CCOC2=O)cc1,inactive: 3
2,Nc1nc(=S)ss1,inactive: 3
3,CCOC(=O)c1[nH]c(C(=O)O)c(OC(=O)CC)c1C,inactive: 3
4,ClC(Cl)(Cl)C1=NCc2nnn(Cc3ccccc3)c2N1,inactive: 3
5,COc1ccccc1NC(=O)c1cc2ccccc2cc1O,inactive: 3
6,Nc1n[nH]c(=S)n1-c1ccc(Cl)cc1,inactive: 3
7,c1ccc(CSc2nc3ncncc3[nH]2)cc1,inactive: 3
8,C#CCSc1n[nH]c(-c2ccco2)n1,inactive: 3
9,CCCCCc1cccnc1,inactive: 3
10,O=Cc1c[nH]c2ncccc12,inactive: 3
11,C1C2CC3C1C3/C2=N\N=C1/C2CC3C(C2)C13,inactive: 3
12,Cc1cc2cc3c(=O)[nH]c(=O)cc-3n(CC(O)C(O)C(O)CO)c2cc1C (stereo unspecified),inactive: 3.3
13,FC(F)(F)c1cccc(OCC2CNC(=S)O2)c1 (stereo unspecified),inactive: 3
14,O=C(Nc1ccc(Cl)c(Cl)c1)c1ccc(Cl)c(Cl)c1,inactive: 3
15,Cc1[nH]c(N=Nc2ccccc2)nc1N=Nc1ccccc1,inactive: 3
16,CC1(C)O[C@H]2CC(=O)OC[C@]23[C@H]2CC[C@@]4(C)[C@H](c5ccoc5)OC(=O)[C@H]5O[C@]54[C@]2(C)C(=O)C[C@@H]13,inactive: 3
17,COc1cc2c(cc1OC)C(/C=C/c1ccco1)=NCC2,inactive: 3
18,O=C(Nc1ccc(NC(=O)c2ccncc2)cc1)c1ccncc1,inactive: 3
19,CCOc1ccc(NC(=S)NC(=O)c2ccco2)cc1,inactive: 3
20,CC1CC=C(O)C12OCC(C)(C)CO2 (stereo unspecified),inactive: 3
21,COCC(O)Cn1ccnc1[N+](=O)[O-] (stereo unspecified),inactive: 3
22,COC(=O)C1=C(C(=O)OC)[C@@H]2CCC[C@H]1[C@H]1[C@@H]2N=NN1c1ccccc1,inactive: 3
23,O=C1OCC/C1=C\c1ccc2c(c1)OCO2,inactive: 3
24,O=C(/C=C/c1cccnc1)c1ccccc1O,inactive: 3

row,Compound,NAD/ADPR ratio
1,CC1(C)CCCC2(C)C(OCCO)=CC(=O)C=C12 (stereo unspecified),inactive: 3
2,COc1ccccc1N1C(=O)CC(Sc2ccccc2N)C1=O (stereo unspecified),inactive: 3
3,O=C1NCN(CCO)CN1,inactive: 3
4,Cc1csc(NC(=O)c2ccc(C(=O)Nc3nc(C)cs3)cc2)n1,inactive: 3
5,CC(=O)/C=C(\C)Nc1ccccc1O,inactive: 3
6,NC(=O)c1nc2c([nH]c1=O)CCCC2,inactive: 3
7,O=C(O)/C=C\c1cc2c(cc1[N+](=O)[O-])OCO2,inactive: 3
8,O=C(O)CCC1(c2ccccc2)NC(=O)NC1=O (stereo unspecified),inactive: 3
9,CC(=O)OCCn1c([N+](=O)[O-])cnc1/C=[N+](\[O-])C1CCCCC1,inactive: 3
10,CCCCCCCCCCC(C(=O)O)C1(C(=O)O)CCC(=O)O1 (stereo unspecified),inactive: 3
11,Cn1ncc2c(Nc3cccc(Cl)c3)nc(Nc3cccc(Cl)c3)nc21,inactive: 3
12,CN1N=C(N)c2cn([C@@H]3O[C@H](COP(=O)(O)O)[C@@H](O)[C@H]3O)c3ncnc1c23,inactive: 3
13,CC1(C)CC(=O)C(CC(=O)c2ccccc2)=C(NN=C(N)N)C1,inactive: 3
14,Cc1ccc(S(=O)c2ccc([N+](=O)[O-])c3nonc23)cc1 (stereo unspecified),active: 13.2
15,O=C(NN1CCCCC1)NN1CCCCC1,inactive: 3
16,Cc1cc(C)c2c(SC(C)C)nc(N)nc2n1,inactive: 3
17,CC1=C2C3OC(=O)C(C)C3CCC2(C)C=C(Cl)C1=O (stereo unspecified),inactive: 3
18,Cc1c(C(C)(C(=O)O)c2c(C)n(C)c3ccccc23)c2ccccc2n1C,inactive: 3
19,O=C(O)/C=C/C(=O)Nc1cccc2cccnc12,inactive: 3
20,O=C1Cc2cccc(=O)c(O)c2C(=O)O1,inactive: 3
21,Cc1ccc(C=C2C(Cl)=C(Cl)C(Cl)=C2Cl)cc1,inactive: 3
22,O=C(Nc1ccc(Nc2ccccc2)cc1)Nc1ccccc1Cl,inactive: 3
23,Cn1cnc([N+](=O)[O-])c1N=C(N)N,inactive: 3
24,COc1cc(-c2ccc(Nc3ccccc3C(=O)O)c(OC)c2)ccc1Nc1ccccc1C(=O)O,inactive: 3

row,Compound,NAD/ADPR ratio
1,COC(=O)c1cc(C)[nH]c2c(C)cc3nc4ccccc4c3c12,inactive: 3
2,Oc1ccc(NC(=S)Nc2ccccc2)cc1,inactive: 3
3,CC(=O)OC1C=CCC2C(=O)c3cccc(O)c3C(O)C12 (stereo unspecified),inactive: 3
4,CC1(CN2CCCC2)CCC(NC(=O)C(c2ccccc2)c2ccccc2)C(C)(C)O1 (stereo unspecified),inactive: 3
5,C#CC(C)OCC1CNC(=S)O1 (stereo unspecified),inactive: 3
6,O=C(O)c1cccc2c1C(=O)c1cccc3snc-2c13,inactive: 3
7,O=C(Nc1ccc(Nc2ccncc2)cc1)c1ccc(Nc2ccnc3ccc([N+](=O)[O-])cc23)cc1[N+](=O)[O-],inactive: 3
8,S=c1cn[nH]c2ccccc12,inactive: 3
9,CCOC(=O)C(Cc1ccc(O)cc1)Nc1nc2ccccc2o1 (stereo unspecified),inactive: 3
10,Clc1ccccc1-c1nc2ccccc2[nH]1,inactive: 3
11,Nc1nc2nn(-c3ccccc3)nc2c(=O)[nH]1,inactive: 3
12,COc1cc(N=Nc2cccc(S(N)(=O)=O)c2)c2ccccc2c1N,inactive: 3
13,CCCCNc1cc(Cl)nc(N)n1,inactive: 3
14,CC(OC(=O)Nc1cccc(Cl)c1)C(=O)O (stereo unspecified),inactive: 3
15,CC(=O)Nc1ccc(Cc2nc3c([nH]2)c(=O)n(C)c(=O)n3C)cc1,inactive: 3
16,O=C1OC(CN(Cc2ccccc2)Cc2ccccc2)CN1/N=C/c1ccc([N+](=O)[O-])o1 (stereo unspecified),inactive: 3
17,Cc1c(Cl)ccc2c(C(=O)O)cc(-c3ccccc3)nc12,inactive: 3
18,CCc1nc(N)nc(N)c1-c1ccc(N(C)Cc2ccccc2)c([N+](=O)[O-])c1,inactive: 3
19,CCOC(=O)c1c(C)oc(C)c(C(=O)OCC)c1=O,inactive: 3
20,C/C(=N/NC(N)=O)c1ccc(Cl)c(-n2cccc2)c1,inactive: 3
21,Clc1ccc(-c2n[nH]c3c2Cc2ccccc2-3)cc1Cl,inactive: 3
22,Nc1c(Cl)ncnc1NCCO,inactive: 3
23,CC1=CC2(C)NC(=O)C(C)C12 (stereo unspecified),inactive: 3
24,O=C1NC(=O)C(Cc2ccccc2)(c2cccnc2)N1 (stereo unspecified),inactive: 3

# A different layout for part of the listing above:
row	Compound	NAD/ADPR ratio
15	O=C(NN1CCCCC1)NN1CCCCC1	inactive: 3
16	Cc1cc(C)c2c(SC(C)C)nc(N)nc2n1	inactive: 3
17	CC1=C2C3OC(=O)C(C)C3CCC2(C)C=C(Cl)C1=O (stereo unspecified)	inactive: 3
18	Cc1c(C(C)(C(=O)O)c2c(C)n(C)c3ccccc23)c2ccccc2n1C	inactive: 3
19	O=C(O)/C=C/C(=O)Nc1cccc2cccnc12	inactive: 3
20	O=C1Cc2cccc(=O)c(O)c2C(=O)O1	inactive: 3
21	Cc1ccc(C=C2C(Cl)=C(Cl)C(Cl)=C2Cl)cc1	inactive: 3
22	O=C(Nc1ccc(Nc2ccccc2)cc1)Nc1ccccc1Cl	inactive: 3
23	Cn1cnc([N+](=O)[O-])c1N=C(N)N	inactive: 3
24	COc1cc(-c2ccc(Nc3ccccc3C(=O)O)c(OC)c2)ccc1Nc1ccccc1C(=O)O	inactive: 3
1	COC(=O)c1cc(C)[nH]c2c(C)cc3nc4ccccc4c3c12	inactive: 3
2	Oc1ccc(NC(=S)Nc2ccccc2)cc1	inactive: 3
3	CC(=O)OC1C=CCC2C(=O)c3cccc(O)c3C(O)C12 (stereo unspecified)	inactive: 3
4	CC1(CN2CCCC2)CCC(NC(=O)C(c2ccccc2)c2ccccc2)C(C)(C)O1 (stereo unspecified)	inactive: 3
5	C#CC(C)OCC1CNC(=S)O1 (stereo unspecified)	inactive: 3
6	O=C(O)c1cccc2c1C(=O)c1cccc3snc-2c13	inactive: 3
7	O=C(Nc1ccc(Nc2ccncc2)cc1)c1ccc(Nc2ccnc3ccc([N+](=O)[O-])cc23)cc1[N+](=O)[O-]	inactive: 3
8	S=c1cn[nH]c2ccccc12	inactive: 3
9	CCOC(=O)C(Cc1ccc(O)cc1)Nc1nc2ccccc2o1 (stereo unspecified)	inactive: 3
10	Clc1ccccc1-c1nc2ccccc2[nH]1	inactive: 3
11	Nc1nc2nn(-c3ccccc3)nc2c(=O)[nH]1	inactive: 3
12	COc1cc(N=Nc2cccc(S(N)(=O)=O)c2)c2ccccc2c1N	inactive: 3
13	CCCCNc1cc(Cl)nc(N)n1	inactive: 3
14	CC(OC(=O)Nc1cccc(Cl)c1)C(=O)O (stereo unspecified)	inactive: 3
15	CC(=O)Nc1ccc(Cc2nc3c([nH]2)c(=O)n(C)c(=O)n3C)cc1	inactive: 3
16	O=C1OC(CN(Cc2ccccc2)Cc2ccccc2)CN1/N=C/c1ccc([N+](=O)[O-])o1 (stereo unspecified)	inactive: 3
17	Cc1c(Cl)ccc2c(C(=O)O)cc(-c3ccccc3)nc12	inactive: 3
18	CCc1nc(N)nc(N)c1-c1ccc(N(C)Cc2ccccc2)c([N+](=O)[O-])c1	inactive: 3
19	CCOC(=O)c1c(C)oc(C)c(C(=O)OCC)c1=O	inactive: 3
20	C/C(=N/NC(N)=O)c1ccc(Cl)c(-n2cccc2)c1	inactive: 3
21	Clc1ccc(-c2n[nH]c3c2Cc2ccccc2-3)cc1Cl	inactive: 3

# Later entries:

row,Compound,NAD/ADPR ratio
1,Nc1ccc(OC(=O)Nc2ccc(O)cc2)cc1,inactive: 3
2,O=C1NC(=O)C2(CCc3ccccc32)N1 (stereo unspecified),inactive: 3
3,Cc1ccc2ccc(C#N)cc2c1O,inactive: 3
4,O=[N+]([O-])c1ccc(-c2ncc(-c3ccc(Br)cc3)o2)cc1,inactive: 3
5,CCOC(=O)c1nn(C)c2[nH]c(=O)n(C)c(=O)c12,inactive: 3
6,O=C(O)CCN1c2ccccc2Sc2ccccc21,inactive: 3
7,OCc1ncc(-c2ccccc2)s1,inactive: 3
8,Cc1nc2c(O)cccc2cc1CO,inactive: 3
9,CCOC(=O)c1ccc(NC(=O)Oc2cc(C)c(Cl)cc2C(C)C)cc1,inactive: 3
10,CC(CCC(=O)O)C1CC[C@@]2(C)C3C(=O)CC4C(C)(C)C(O)CC[C@]4(C)C3C(=O)C[C@]12C (stereo partly specified),inactive: 3
11,CSC1=NC=C(C#N)C2=NC(c3ccc(Cl)cc3)NN12 (stereo unspecified),inactive: 3
12,Cn1ncc2c(Nc3ccc(O)cc3)nc(Cl)nc21,inactive: 3
13,O=C(NC(=S)Nc1ccccn1)c1ccccc1,inactive: 3
14,Cc1ccc(-c2cssc2=S)cc1,inactive: 3
15,O=c1[nH]c(=S)c2[nH]c(=S)n(-c3ccccc3)c2[nH]1,inactive: 3
16,O=C(c1ccccc1)c1ccc[nH]1,inactive: 3
17,Nc1ccc(C(=O)Nc2ccc(NC(=O)c3ccco3)c(O)c2)cc1,inactive: 3
18,Cc1ccc(S(=O)(=O)Oc2cc(N)c3c(n2)CCC3)cc1,inactive: 3
19,Cc1cc(NC(=O)Nc2cc(F)ccc2F)no1,inactive: 3
20,O=C(CN1CCCC1)Nc1nc(-c2ccc(Cl)cc2)cs1,inactive: 3
21,COC(=O)c1ccccc1NCCO,inactive: 3
22,COc1cc2c(cc1OC)C(C1(O)CCCCC1)NCC2 (stereo unspecified),inactive: 3
23,Cc1nn(-c2ccccc2)c2c1C(c1ccc([N+](=O)[O-])cc1)C(C#N)=C(N)O2 (stereo unspecified),inactive: 3
24,O=S(=O)(Oc1ccc(Cl)cc1)c1cccc2cccnc12,inactive: 3

row,Compound,NAD/ADPR ratio
1,Nc1ccc(C(=O)c2cccs2)cn1,inactive: 3
2,CC(C)=CCC1=C(OCC(=O)O)C(=O)c2ccccc2C1=O,inactive: 3
3,O=C(Nc1ccc(Oc2ccc(NC(=O)Nc3ccccc3Cl)cc2)cc1)Nc1ccccc1Cl,inactive: 3
4,COc1cc([N+](=O)[O-])ccc1NC(=O)Oc1ccc(NC(C)=O)cc1,inactive: 3
5,CC1(C)N=C(N)N=C(N)N1c1ccc(OCCCOc2ccccc2)c(Cl)c1,inactive: 3
6,O=C(O)CSc1ccc(NC(=O)Nc2ccccc2F)cc1,inactive: 3
7,COCC(=O)Oc1cc(-c2ccc(C)cc2C)c(OC(=O)COC)c(-c2ccc(C)cc2C)c1,inactive: 3
8,O=C(O)C(Cc1cn[nH]n1)=NO,inactive: 3
9,Cc1cc(O)cc2c1[C@H]1CC[C@]3(C)C(=O)CC[C@H]3[C@@H]1C=C2,inactive: 3
10,CC(C)c1ncc(CO)n1Cc1c(Cl)cccc1Cl,inactive: 3
11,O=C(O)Cc1ccc(N=Nc2c(O)c(C(=O)O)cc3ccccc23)cc1,inactive: 3
12,NS(=O)(=O)c1ccc(NC(=S)NC(=O)c2ccco2)cc1,inactive: 3
13,CC(=O)Oc1ccc2cc(-c3ccccc3)c(=O)oc2c1,inactive: 3
14,Cn1ncc2c(NCc3ccccc3)ncnc21,inactive: 3
15,COc1ccc(NC(=O)N2CCN(C(=O)Nc3ccc(OC)cc3)CC2)cc1,inactive: 3
16,S=c1nc[nH]c2c1cnn2-c1ccccc1,inactive: 3
17,CC(C)c1ccc2c(c1)CCC1C(C)(CN)CCCC21C (stereo unspecified),inactive: 3
18,c1ccc(N=NN2CCOCC2)cc1,inactive: 3
19,Clc1ccccc1/C=C/c1ccnc2ccccc12,inactive: 3
20,CCNc1nc(Cl)nc(-c2cn(-c3ccccc3)c3ccccc23)n1,inactive: 3

# From PubChem BioAssay AID1508615 (Milbrandt Lab, Department of Genetics, Washington …, 2020)
